Source: PubChem BioAssay AID504764 (Drosophila RNAi Screening Center, 2011)
Purpose: 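Genes whose knock-down alters Notch-dependent transcription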 (primary screen). Cell system: Drosophila Kc167 cells. Reagents: long dsRNA against Drosophila genes. Timing: about 5 days (4 days dsRNA, then 24 h after transfection). Challenge: transfection of constitutively active membrane-tethered Notch lacking the extracellular domain, read 24 h later. Measurement: 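Firefly luciferase from an E(spl)m3 reporter with active Notch, plus control-promoter and uninduced reporter wells for normalisation; unnormalised counts, duplicate wells a and b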. Reading the numbers: induced reporter light, run 1, well a and induced reporter light, run 1, well b: higher = more light from the Notch target reporter with active Notch; control promoter light, run 1, well a and control promoter light, run 1, well b: higher = more light from the viral control promoter (cell number, transfection, viability); uninduced reporter light, run 1, well a: higher = more light from the Notch target reporter without active Notch. Hit rule: 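Hit if the duplicate-averaged log2 ratio of induced to control-promoter light gives a plate-wise z beyond ±2, or induced to uninduced beyond ±1.8; weak-control or discordant-duplicate wells dropped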. Meaning of the calls: active = modifier hit (raised or lowered Notch signal); inactive = not a hit.
The screen tested about 22,000 reagents; shown is a random part of those that have a named target and a result. In the full data, 403 (1.9%) were called active. 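Unnormalised raw counts per well; ratio z-scores behind the hit calls and whether each hit raises or lowers signal are not deposited.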 The numbers tell different reagents against one gene apart. The record does not give: the amount of reagent.

gene knocked down | dsRNA no. | induced reporter light, run 1, well a | induced reporter light, run 1, well b | control promoter light, run 1, well a | control promoter light, run 1, well b | uninduced reporter light, run 1, well a | Outcome
Cdc42 | 1 | 71685 | 92710 | 95990 | 1.23e5 | 7255 | inactive
Ufsp1 | 1 | 73235 | 84880 | 1.13e5 | 1.15e5 | 4038 | inactive
Zip89B | 1 | 1.42e5 | 1.71e5 | 1.84e5 | 1.83e5 | 17855 | inactive
Hsf | 1 | 96945 | 1.04e5 | 1.63e5 | 2.14e5 | 7780 | inactive
lva | 1 | 1.79e5 | 1.95e5 | 2.38e5 | 2.36e5 | 12105 | inactive
Tsp29Fb | 1 | 1.09e5 | 1.22e5 | 84970 | 90370 | 15700 | inactive
CG30116 | 1 | 75015 | 88435 | 1.77e5 | 1.48e5 | 7465 | inactive
CG30116 | 2 | 1.18e5 | 91480 | 86510 | 92375 | 8500 | inactive
Cpr12A | 1 | 1.28e5 | 1.17e5 | 1.51e5 | 2.12e5 | 8845 | inactive
Dus1 | 1 | 1.42e5 | 1.06e5 | 97050 | 67990 | 8925 | inactive
dj-1beta | 1 | 1.20e5 | 1.18e5 | 1.90e5 | 1.73e5 | 9765 | inactive
sqh | 1 | 74725 | 62220 | 1.44e5 | 1.36e5 | 6000 | active
CG10417 | 1 | 1.21e5 | 1.51e5 | 75755 | 85620 | 6605 | active
Ote | 1 | 66200 | 74180 | 2.18e5 | 2.03e5 | 4250 | active
bond | 1 | 1.20e5 | 1.20e5 | 1.36e5 | 1.28e5 | 10475 | inactive
dgo | 1 | 1.82e5 | 1.55e5 | 1.62e5 | 1.37e5 | 13192 | inactive
CG14298 | 1 | 1.64e5 | 1.72e5 | 2.29e5 | 2.22e5 | 11695 | inactive
CG11905 | 1 | 1.10e5 | 1.13e5 | 79900 | 87940 | 9525 | inactive
CG5282 | 1 | 94980 | 1.05e5 | 73350 | 90890 | 8350 | inactive
subdued | 1 | 1.62e5 | 1.73e5 | 2.05e5 | 2.09e5 | 15860 | inactive
Septin2 | 1 | 1412 | 65935 | 89370 | 91650 | 5630 | inactive
CG8032 | 1 | 65790 | 76220 | 54070 | 51365 | 5175 | inactive
CG13445 | 1 | 1.56e5 | 1.70e5 | 1.73e5 | 1.84e5 | 7530 | inactive
CG10725 | 1 | 2.38e5 | 1.73e5 | 1.12e5 | 1.14e5 | 17135 | inactive
Scgdelta | 1 | 1.21e5 | 87755 | 1.55e5 | 2.12e5 | 6300 | inactive
CG8483 | 1 | 1.49e5 | 1.44e5 | 95285 | 91360 | 9135 | inactive
Fic | 1 | 1.59e5 | 1.59e5 | 1.74e5 | 1.57e5 | 15560 | inactive
CG14646 | 1 | 1.35e5 | 1.06e5 | 75020 | 71645 | 8050 | inactive
Sirt1 | 1 | 1.81e5 | 2.35e5 | 2.31e5 | 2.30e5 | 13590 | inactive
Rtc1 | 1 | 2.01e5 | 1.74e5 | 2.66e5 | 2.95e5 | 13630 | inactive
Jhbp14 | 1 | 1.70e5 | 2.23e5 | 1.76e5 | 1.44e5 | 17635 | inactive
CG31515 | 1 | 2.06e5 | 1.69e5 | 1.98e5 | 1.98e5 | 15095 | inactive
CG4955 | 1 | 1.49e5 | 1.17e5 | 1.03e5 | 49385 | 11350 | inactive
CG13676 | 1 | 3.04e5 | 2.32e5 | 4.31e5 | 2.63e5 | 15410 | inactive
Sps2 | 1 | 1.22e5 | 1.58e5 | 63125 | 84650 | 17660 | inactive
Rae1 | 1 | 1.78e5 | 1.93e5 | 1.42e5 | 1.47e5 | 13950 | inactive
CG11113 | 1 | 1.88e5 | 1.77e5 | 2.01e5 | 2.25e5 | 17335 | inactive
tobi | 1 | 1.51e5 | 1.25e5 | 1.52e5 | 2.09e5 | 11630 | inactive
S-Lap4 | 1 | 2.13e5 | 1.39e5 | 2.43e5 | 2.16e5 | 8900 | inactive
eEF1alpha1 | 1 | 14305 | 12925 | 24340 | 19025 | 1570 | inactive
Nedd4 | 1 | 1.31e5 | 1.23e5 | 1.45e5 | 1.84e5 | 6365 | inactive
Mlf | 1 | 85995 | 1.01e5 | 1.55e5 | 2.17e5 | 9640 | inactive
CG42591 | 1 | 2.46e5 | 2.64e5 | 3.17e5 | 3.51e5 | 15420 | inactive
Hn | 1 | 1.07e5 | 1.06e5 | 64985 | 34640 | 9478 | inactive
RpL32 | 1 | 7945 | 6465 | 14480 | 12025 | 575 | inactive
Madm | 1 | 1.06e5 | 88885 | 64780 | 48520 | 6392 | inactive
Atxn7 | 1 | 1.11e5 | 1.21e5 | 1.35e5 | 1.14e5 | 12532 | inactive
Ets97D | 1 | 1.34e5 | 1.17e5 | 1.80e5 | 1.89e5 | 10515 | inactive
stol | 1 | 1.35e5 | 1.31e5 | 1.59e5 | 1.61e5 | 9885 | inactive
CG7519 | 1 | 1.24e5 | 1.06e5 | 1.34e5 | 95635 | 5730 | inactive
Prosalpha3T | 1 | 1.21e5 | 1.11e5 | 1.66e5 | 1.58e5 | 8670 | inactive
E(spl)m4-BFM | 1 | 1.76e5 | 1.66e5 | 1.43e5 | 1.63e5 | 13510 | inactive
CG13994 | 1 | 1.74e5 | 1.51e5 | 2.22e5 | 2.12e5 | 12605 | inactive
CG12551 (retired record) | 1 | 1.44e5 | 1.25e5 | 1.54e5 | 1.61e5 | 9220 | inactive
CG12551 (retired record) | 2 | 1.57e5 | 1.17e5 | 1.46e5 | 1.44e5 | 10660 | inactive
sta | 1 | 58755 | 48545 | 65935 | 72030 | 3610 | inactive
5PtaseI | 1 | 5220 | 7165 | 7432 | 5860 | 770 | inactive
rdgBbeta | 1 | 1.12e5 | 78355 | 1.50e5 | 1.37e5 | 9810 | inactive
oys | 1 | 85585 | 1.01e5 | 1.24e5 | 1.33e5 | 4605 | inactive
oys | 2 | 1.10e5 | 1.34e5 | 97870 | 98620 | 13120 | inactive
Gr64f | 1 | 1.73e5 | 1.55e5 | 2.22e5 | 2.15e5 | 10945 | inactive
CG15333 | 1 | 1.42e5 | 1.54e5 | 2.40e5 | 1.98e5 | 11450 | inactive
CG15333 | 2 | 1.49e5 | 1.39e5 | 2.10e5 | 2.33e5 | 10588 | inactive
CG33757 | 1 | 45435 | 56535 | 69220 | 76915 | 2380 | inactive

Already shown: entries from further up.
gene knocked down | dsRNA no. | induced reporter light, run 1, well a | induced reporter light, run 1, well b | control promoter light, run 1, well a | control promoter light, run 1, well b | uninduced reporter light, run 1, well a | Outcome
tobi | 1 | 1.51e5 | 1.25e5 | 1.52e5 | 2.09e5 | 11630 | inactive
S-Lap4 | 1 | 2.13e5 | 1.39e5 | 2.43e5 | 2.16e5 | 8900 | inactive
eEF1alpha1 | 1 | 14305 | 12925 | 24340 | 19025 | 1570 | inactive
Nedd4 | 1 | 1.31e5 | 1.23e5 | 1.45e5 | 1.84e5 | 6365 | inactive
Mlf | 1 | 85995 | 1.01e5 | 1.55e5 | 2.17e5 | 9640 | inactive
CG42591 | 1 | 2.46e5 | 2.64e5 | 3.17e5 | 3.51e5 | 15420 | inactive
Hn | 1 | 1.07e5 | 1.06e5 | 64985 | 34640 | 9478 | inactive
